Test results from PubChem BioAssay AID504840 (Johns Hopkins Ion Channel Center, 2011).
The campaign covered roughly 1,500 compounds. About 890 (59%) were called active.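 How the source made its calls: active means inhibition of the choline-evoked signal at any tested dose together with a fitted dose-response curve; inactive means no inhibition at any dose or no curve.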 The set was probably picked from earlier hits. The list shows a part of the results, in another mix than the full data. Results with a measured potency or affinity are listed apart.

By UniProt entry, the sequences of proteins in these tests, tags left out. Where a name states a change or a piece, a line headed by the entry shows the natural chain unless it says otherwise.
UniProt Q9GZV3: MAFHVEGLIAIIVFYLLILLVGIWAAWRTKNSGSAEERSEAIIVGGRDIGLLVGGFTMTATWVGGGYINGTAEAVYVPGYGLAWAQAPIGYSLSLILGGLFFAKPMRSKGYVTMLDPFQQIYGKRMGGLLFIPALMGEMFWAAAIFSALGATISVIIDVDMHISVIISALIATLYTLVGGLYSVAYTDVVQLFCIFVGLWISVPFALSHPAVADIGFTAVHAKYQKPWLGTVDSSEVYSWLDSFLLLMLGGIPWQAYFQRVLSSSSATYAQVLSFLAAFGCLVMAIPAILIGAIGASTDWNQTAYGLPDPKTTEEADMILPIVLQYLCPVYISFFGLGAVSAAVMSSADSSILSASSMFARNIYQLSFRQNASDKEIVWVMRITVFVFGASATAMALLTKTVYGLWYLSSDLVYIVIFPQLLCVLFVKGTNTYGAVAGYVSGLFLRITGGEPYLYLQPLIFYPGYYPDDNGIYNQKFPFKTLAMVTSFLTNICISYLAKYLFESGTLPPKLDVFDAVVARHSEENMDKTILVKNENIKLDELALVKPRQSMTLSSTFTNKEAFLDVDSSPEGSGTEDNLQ

Each compound was assayed against High affinity choline transporter 1 (Homo sapiens) (UniProt Q9GZV3) (assay: human choline transporter blockers, potency – cell-based, 5-point CRC, membrane potential dye, dose response (AID 504840;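 further: 0% = buffer-only response and 100% = EC90 choline response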)). Conditions: HEK293-CHT, choline-induced depolarization; at 37 µM (top of the series), CHT with LV-to-AA double alanine mutation unless noted.
With `COc1c(/C=C2/C(=O)NC(=O)N(C)C2=O)c(CCN(C)C(=O)c2ccccc2)cc2c1OCO2` the inhibition was inactive: 34.3% [at 37 µM].
For `Cc1ccc2c(c1)C1CN(C)CCC1N2C(=O)CCCN1C(=O)c2cccc3cccc(c23)C1=O` (stereo not given), the inhibition was inactive: 57.6%.
For `Cc1cccc(N2CCc3c2nc2ccccc2c3N)c1`, the inhibition was inactive: 52%.
In the case of `COC(=O)C1=C(c2cc3ccccc3o2)C[C@@H]2CC[C@H]1N2C(=O)N1CCCC1`, the inhibition is reported as inactive: 63.4%.
In the case of `CC(=O)O[C@@H]1/C=C/[C@](C)(O)C[C@@H](C)C/C=C/[C@H]2[C@@H]3O[C@]3(C)[C@@H](C)[C@H]3[C@H](Cc4ccccc4)NC(=O)[C@@]312`, the inhibition is reported as inactive: -6.01%.
In the case of `CCOc1cc(/C=C2/C(=O)NC(=O)N(c3ccc(CC)cc3)C2=O)ccc1OC(=O)c1cccs1`, the inhibition is reported as inactive: 56.5% [at 37 µM].
With `CC[N+](CC)(CC#CCO)CC#Cc1ccccc1` the inhibition was inactive: 67%.
With `c1ccc2c(CN3CCCCCC3)c[nH]c2c1` the inhibition was inactive: 71.8%.
For `O=c1cccc2n1CC1CC2CN(Cc2cccc(Cl)c2Cl)C1` (stereo not given), the inhibition was inactive: 45.8%.
With `O=C1NC(=O)C(=Cc2coc3ccc(O)cc3c2=O)C(=O)N1` the inhibition was inactive: 38.7% [at 37 µM].
In the case of `CC(=O)O[C@@]12CO[C@@H]1C[C@@H](O)[C@@]1(C)C(=O)[C@H](O)C3=C(C)[C@@H](OC(=O)[C@H](O)[C@@H](NC(=O)c4ccccc4)c4ccccc4)C[C@@](O)([C@@H](OC(=O)c4ccccc4)C12)C3(C)C` (stereo not given in full), the inhibition is reported as inactive: 23.9%.
In the case of `Cc1ccc2c(c1)C1CN(C)CCC1N2C(=O)Nc1cccc(C(F)(F)F)c1` (stereo not given), the inhibition is reported as inactive: 48.9%.
With `Cc1cc(/C=C2\C(=O)NC(=O)N(Cc3ccco3)C2=O)c(C)n1-c1ccc(C(=O)O)cc1` the inhibition was inactive: 14% [at 37 µM].
With `CCNC(=O)C1OC(n2cnc3c(N)ncnc32)C(O)C1O` (stereo not given) the inhibition was inactive: 63.1%.
With `COc1cc(C=C2C(=O)NC(=O)NC2=O)ccc1OS(=O)(=O)c1ccccc1[N+](=O)[O-]` the inhibition was inactive: 42% [at 37 µM].
